Results deposited as PubChem BioAssay AID504793 (Drosophila RNAi Screening Center, 2011)
Purpose: 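Genes required for cells to halt at G2/M after double-strand DNA breaks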 (primary screen). Cell system: Drosophila S2R+ cells. Knock-down reagent: long dsRNA against Drosophila genes, about 0.25 µg dsRNA per well. Time to read-out: 4 days of dsRNA, then 4 hours of drug before read-out. Treatment: doxorubicin 0.5 µM for 4 hours to cause double-strand breaks, in cells also given a low, harmless dose of dsRNA against nbs to sensitise the assay. Measured: 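Per-well count of mitotic cells stained for phospho-histone H3 after doxorubicin exposure, used as mitotic index; counts are raw and not normalised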. Scale: mitotic cells: higher = more cells in mitosis, weaker G2 arrest. Active means: 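Genes are called active only when high mitotic counts were reproduced with independent dsRNAs and mitosis was checked for delay without damage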. Calls: active = confirmed in follow-up tests; inactive = not confirmed.
The deposit covers about 23,000 reagents; below is a random part of those that have a named target and a result. In the full data, 62 (0.27%) got an active call. 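Calls come from follow-up tests whose scores are not deposited, so confirmed genes may have low counts here; counts are not normalised per plate.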 Raw values are not corrected between plates. A number with no mark means an inactive call.

ssx (GeneID 31086) [DRSC18492] — mitotic cells, replicate 1 = 3
ssx (GeneID 31086) [DRSC23454] — mitotic cells, replicate 1 = 5
Arpc2 (GeneID 35311) [DRSC02113] — mitotic cells, replicate 1 = 7
CG12911 (GeneID 36081) [DRSC06226] — mitotic cells, replicate 1 = 8
CG12911 (GeneID 36081) [DRSC27975] — mitotic cells, replicate 1 = 2
Fitm (GeneID 38596) [DRSC09772] — mitotic cells, replicate 1 = 7
Fitm (GeneID 38596) [DRSC28750] — mitotic cells, replicate 1 = 6
CG11251 (GeneID 39490) [DRSC09825] — mitotic cells, replicate 1 = 4
CG4641 (retired record) (GeneID 39053) [DRSC10439] — mitotic cells, replicate 1 = 6
CG4641 (retired record) (GeneID 39053) [DRSC24444] — mitotic cells, replicate 1 = 3
Apoltp (GeneID 34283) [DRSC02508] — mitotic cells, replicate 1 = 4
nol (GeneID 64867) [DRSC21425] — mitotic cells, replicate 1 = 7
nol (GeneID 64867) [DRSC25423] — mitotic cells, replicate 1 = 4
CG5554 (GeneID 37775) [DRSC04513] — mitotic cells, replicate 1 = 8
CG5554 (GeneID 37775) [DRSC25559] — mitotic cells, replicate 1 = 3

2 of these entries, set out differently.
| target gene | dsRNA | mitotic cells, replicate 1 |
| --- | --- | --- |
| CG12911 (GeneID 36081) | DRSC06226 | 8 |
| CG12911 (GeneID 36081) | DRSC27975 | 2 |
